Results reported in PMC7614367, “Itraconazole inhibits endothelial cell migration by disrupting inositol pyrophosphate-dependent focal adhesion dynamics and cytoskeletal remodeling” (Biomedicine & Pharmacotherapy, 2023).
No constants are given. Whether binding was seen depends on the method and setting. Binding seen in cells or lysates may run through a third protein. Some entries that bind do so weakly or less than the wild type.

Sequences of proteins named here, by UniProt entry; tags and fusion partners are left off.
UniProt Q05397: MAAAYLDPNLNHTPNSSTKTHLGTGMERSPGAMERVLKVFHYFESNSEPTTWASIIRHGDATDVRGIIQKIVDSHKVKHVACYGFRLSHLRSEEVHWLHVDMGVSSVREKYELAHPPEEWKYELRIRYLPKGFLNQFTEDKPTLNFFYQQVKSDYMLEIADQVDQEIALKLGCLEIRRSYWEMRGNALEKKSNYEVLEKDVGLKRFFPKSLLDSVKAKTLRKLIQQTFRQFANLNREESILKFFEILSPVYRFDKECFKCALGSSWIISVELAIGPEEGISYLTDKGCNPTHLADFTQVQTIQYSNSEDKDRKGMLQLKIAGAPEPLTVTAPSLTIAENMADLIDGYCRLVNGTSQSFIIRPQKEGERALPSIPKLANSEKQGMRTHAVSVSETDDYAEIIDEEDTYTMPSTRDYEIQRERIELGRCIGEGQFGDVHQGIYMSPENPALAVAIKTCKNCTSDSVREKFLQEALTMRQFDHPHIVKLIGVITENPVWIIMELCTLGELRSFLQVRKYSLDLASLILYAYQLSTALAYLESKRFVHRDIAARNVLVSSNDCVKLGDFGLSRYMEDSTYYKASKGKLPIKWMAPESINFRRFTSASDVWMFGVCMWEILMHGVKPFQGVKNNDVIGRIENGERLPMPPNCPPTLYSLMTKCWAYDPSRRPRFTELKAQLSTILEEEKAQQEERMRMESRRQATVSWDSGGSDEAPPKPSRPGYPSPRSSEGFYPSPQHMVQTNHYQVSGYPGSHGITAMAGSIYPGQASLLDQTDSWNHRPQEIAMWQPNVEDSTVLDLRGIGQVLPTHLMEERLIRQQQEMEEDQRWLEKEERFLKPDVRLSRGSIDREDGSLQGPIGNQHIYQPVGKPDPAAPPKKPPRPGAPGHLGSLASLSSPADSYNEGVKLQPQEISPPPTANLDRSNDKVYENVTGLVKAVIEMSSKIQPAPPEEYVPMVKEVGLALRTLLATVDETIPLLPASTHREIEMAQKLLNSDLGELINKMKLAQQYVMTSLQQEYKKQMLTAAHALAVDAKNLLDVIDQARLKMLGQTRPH
UniProt P34152: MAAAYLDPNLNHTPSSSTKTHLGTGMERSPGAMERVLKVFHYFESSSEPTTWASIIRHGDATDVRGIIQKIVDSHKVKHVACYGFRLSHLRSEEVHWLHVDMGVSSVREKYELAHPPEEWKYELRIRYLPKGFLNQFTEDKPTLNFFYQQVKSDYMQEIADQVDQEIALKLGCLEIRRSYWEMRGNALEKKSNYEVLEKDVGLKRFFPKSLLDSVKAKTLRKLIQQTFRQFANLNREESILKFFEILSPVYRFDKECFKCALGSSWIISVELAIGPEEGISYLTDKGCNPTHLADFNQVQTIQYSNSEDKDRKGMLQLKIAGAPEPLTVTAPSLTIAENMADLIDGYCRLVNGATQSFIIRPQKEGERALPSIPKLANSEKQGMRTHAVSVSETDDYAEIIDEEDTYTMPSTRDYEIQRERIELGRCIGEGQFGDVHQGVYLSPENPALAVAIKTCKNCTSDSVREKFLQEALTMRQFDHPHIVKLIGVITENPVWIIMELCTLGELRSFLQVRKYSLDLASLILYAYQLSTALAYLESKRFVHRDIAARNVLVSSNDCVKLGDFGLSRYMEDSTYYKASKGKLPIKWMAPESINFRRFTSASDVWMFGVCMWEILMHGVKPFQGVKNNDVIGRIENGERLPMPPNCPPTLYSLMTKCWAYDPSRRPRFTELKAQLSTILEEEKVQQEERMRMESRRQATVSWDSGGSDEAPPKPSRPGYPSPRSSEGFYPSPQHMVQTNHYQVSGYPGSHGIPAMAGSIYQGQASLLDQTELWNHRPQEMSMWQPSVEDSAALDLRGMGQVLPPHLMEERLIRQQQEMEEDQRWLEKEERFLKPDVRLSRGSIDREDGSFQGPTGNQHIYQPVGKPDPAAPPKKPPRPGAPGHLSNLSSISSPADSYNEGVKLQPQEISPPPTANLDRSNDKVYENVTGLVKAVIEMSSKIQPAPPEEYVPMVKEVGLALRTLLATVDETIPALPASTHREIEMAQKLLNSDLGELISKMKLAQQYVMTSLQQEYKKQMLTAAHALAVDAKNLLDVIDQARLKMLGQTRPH

Biological target: GST-fused FAK (in MEF cells) (UniProt Q05397)
Experiment: pull-down; GST-FAK overexpressed in WT and IP6K1 KO MEF cells and pulled down, endogenous FAK detected

## endogenous FAK (MEF cells) (from UniProt P34152 1-1052) (enzyme)
  binding: binds
